# Measurements published in PubChem BioAssay AID1508600 (Functional Genomics Laboratory (NCATS/FGL), 2020).
# In all, about 53,000 sequences went through this assay and about 3,700 (7%) were called active.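 Rule for the calls: active = gene knockdowns whose robust z-score for IL-1 alpha signal is at least 2 or at most -2, so actives lie on both sides; inactive = the rest.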 The list shows a part of the results.
# Experiment: Components of the Cytosolic LPS Sensing Pathway: Gene Identification via Genome-wide siRNA Screen;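 note: robust z of the log signal after scaling to non-targeting control siRNA wells of the plate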
# Settings: RAW264.7 macrophages, IL-1a HTRF, actives lie on both sides, screened at 100 nM (by protocol), cells primed 5 h with Pam3CSK4 first
# In short: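 Supernatant IL-1a by HTRF from RAW264.7 cells primed with Pam3CSK4 (5 hours) and transfected with LipidA (24 hour) after 48h siRNA knockdown at 100 nM; cell viability checked with CellTiter-Glo.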
row,Sequence,z-score
1,GUGCAGAAGCUGAUGCACCTT against Pou3f1,inactive: -0.0458
2,GGUUUAUAGCUUUUUGGUCTT against Tiam1,inactive: 1.58
3,GGACUACCUGUGAAGCAAUTT against Mtfmt,inactive: -1.67
4,GGAGAAGGCAAAGAAAGGATT against Foxa3,inactive: 0.127
5,GGAUGAGCUUUAAAAUAGATT against Mc1r,inactive: 0.375
6,CCCUCAUACCGCUUAGAACTT against Tctex1d4,inactive: -0.786
7,GGACCAUGUGGACUUUAGCTT against Sema7a,inactive: -0.522
8,GGUGAAAGAGAAGACUGAATT against Aimp1,inactive: -0.418
9,GGAACUCAAAUUGAAAAGGTT against Manea,inactive: -0.135
10,GGUGUAGGCUGUCCAAUAATT against Rtel1,inactive: 0.74
11,GGGAUGACUUUAAUAUCAATT against Cyth3,inactive: -0.72
12,GCAAGAACAUUAUGAAAGUTT against Epb41,inactive: 0.905
13,GGAGACAAACAAAAUCAUCTT against Sbsn,inactive: -0.885
14,GGCACUAAUUGAAGAAUUUTT against 4930544G11Rik,inactive: 0.151
15,CGUUCACCGUCUCCAAGUATT against Cav3,inactive: -1.62
16,GGGCAGAAGUCGUGUUUCUTT against Abhd14a,inactive: -0.243
17,GGAACUUCCUGUUCAGAAATT against Eci3,inactive: 0.881
18,GGUCAUGGAAGAUUCCAAGTT against Atp6v1c2,inactive: 0.843
19,GCACAAGACUAACAAUACGTT against Sptbn2,inactive: -1.26
20,GCCACUCACUAUGCUACUCTT against Pnpla2,active: -2.62
21,GGGCCAAAACAAUUAAGAATT against Kif5b,inactive: 0.412
22,CCUAAUUUCCUAGAUCUUCTT against Rtp1,inactive: -0.439
23,CCCAAAUACUCCAAUUAUATT against Fzd3,inactive: 0.289
24,GGCAGAAAGACAUUUUCUUTT against Ift80,active: -2.53
25,GGCUCUGUUUAUCCUGGAGTT against Pcdha7,inactive: -0.0385
26,GGACCUCGAUCUCUCUUAUTT against Lrfn3,inactive: -0.354
27,GCUCACCCAACAAUAUCCATT against Slc17a8,inactive: -0.881
28,GGUCAGCUUCAGAGAAAACTT against Aire,inactive: -0.411
29,AACUCGUGUGCAACGUGGUTT against Tctex1d4,inactive: 0.79

# 7 entries from above, tab-delimited.
row	Sequence	z-score
5	GGAUGAGCUUUAAAAUAGATT against Mc1r	inactive: 0.375
6	CCCUCAUACCGCUUAGAACTT against Tctex1d4	inactive: -0.786
7	GGACCAUGUGGACUUUAGCTT against Sema7a	inactive: -0.522
8	GGUGAAAGAGAAGACUGAATT against Aimp1	inactive: -0.418
9	GGAACUCAAAUUGAAAAGGTT against Manea	inactive: -0.135
10	GGUGUAGGCUGUCCAAUAATT against Rtel1	inactive: 0.74
11	GGGAUGACUUUAAUAUCAATT against Cyth3	inactive: -0.72
